Test results taken from patent US12673972B2, “Lung-specific targeting-peptide (LTP), compositions, and uses thereof” (University of Pittsburgh—Of the Commonwealth System of …, priority 2019, dated 2026).

Tested on: H9C2 cells
Assay: Confocal microscopy of H9C2 cells transduced with linear or cyclic CTP
Type: cell-based, rat
Details: confocal quantification
Text: The cardiac targeting peptide (CTP, SEQ ID NO: 3) was cyclized by establishing a chemical bond between the amino and carboxyl termini (between the alpha-amino group of N-terminal Lysine and the C-terminus of the peptide sequence), and subsequently labelled with a Cy5.5 fluorescent label at the epsilon amino group of the N-terminal lysine.
The cyclic form of CTP was then compared to the linear form of CTP using confocal microscopy of transduced H9C2 cells, using the protocol as described in Example 1 above. […] Quantification of the fluorescence intensity, as shown in FIG. 10B and Table 2, confirmed the enhanced fluorescent activity.

Row | Sequence | Background (fluorescence)
1 | KAPWHLSSQYSRT (head-to-tail cyclized; Cy5.5 on lysine) [Cyclic CTP, CTP cyclized via N-terminal lysine alpha-amino group to C-terminus, Cy5.5 at lysine epsilon amino group] | 150.467
2 | APWHLSSQYSRT [Linear CTP, cardiac targeting peptide described in WO2019226785A1, parental peptide, reference compound] | 227.701
